Data reported in the supplement of paper PMC7646827.
Single values are uncertain, as repeats are few or missing.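 All cells are established human bladder cancer lines, one of them grown from a patient-derived xenograft. Viability was read by a luminescent ATP assay as percent inhibition versus vehicle over a seven-point dilution series; the paper calls scores above 59 very active, 30–59 active, 21–29 semi-active, 9–20 low active and below 9 inactive.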

What was measured:
Test in all cases: drug sensitivity score DSS3 (score 0-100); higher = more sensitive; extreme values may be limits of the assay
Details in all cases: culture: 3D, ultra-low attachment; treatment time: 5 days
UM-UC-1 = test system: UM-UC-1
UM-UC-9 = test system: UM-UC-9
UM-UC-15 = test system: UM-UC-15
T-24 = test system: T-24
J82 = test system: J82
UM-UC-12 = test system: UM-UC-12
UM-UC-17 = test system: UM-UC-17
5637 = test system: 5637
UM-UC-14 = test system: UM-UC-14
TCCSUP = test system: TCCSUP
SCaBER = test system: SCaBER
UM-UC-3 = test system: UM-UC-3
UM-UC-18 = test system: UM-UC-18
UM-UC-5 = test system: UM-UC-5
SW780 = test system: SW780
UM-UC-6 = test system: UM-UC-6
BC8149 = test system: BC8149

SMILES	drug sensitivity score DSS3 (UM-UC-1)	drug sensitivity score DSS3 (UM-UC-9)	drug sensitivity score DSS3 (UM-UC-15)	drug sensitivity score DSS3 (T-24)	drug sensitivity score DSS3 (J82)	drug sensitivity score DSS3 (UM-UC-12)	drug sensitivity score DSS3 (UM-UC-17)	drug sensitivity score DSS3 5637	drug sensitivity score DSS3 (UM-UC-14)	drug sensitivity score DSS3 (TCCSUP)	drug sensitivity score DSS3 (SCaBER)	drug sensitivity score DSS3 (UM-UC-3)	drug sensitivity score DSS3 (UM-UC-18)	drug sensitivity score DSS3 (UM-UC-5)	drug sensitivity score DSS3 (SW780)	drug sensitivity score DSS3 (UM-UC-6)	drug sensitivity score DSS3 (BC8149)
CN1CCN(C(=O)c2cc3cc(Cl)ccc3[nH]2)CC1 (max dose 10000 nM)	0	0	0	0	0	0	0	0	0	0	0	0	0	0	0	0	0
NS(=O)(=O)NCCNc1nonc1/C(=N/O)Nc1ccc(F)c(Br)c1 (max dose 10000 nM)	1.36	5.22	7.41	0	0	6.8	0	10.4	0.533	1.34	3.53	8.77	16.4	0.85	1.22	0.113	5.43
Nc1nc(N)c2nc(-c3cccc(O)c3)c(-c3cccc(O)c3)nc2n1 [TG100-115] (max dose 10000 nM)	0	0	0	0	0	0	0	0	0	0	0	0	0	0	0	0	0
O=C1NC(=O)C(c2cnc3ccccn23)=C1c1cn2c3c(cc(F)cc13)CN(C(=O)N1CCCCC1)CC2 (max dose 10000 nM)	0.508	0	0	0.0827	0	38.9	0	39.3	4.13	34.8	0	0	2.46	0	0	22.4	0
C=CC(=O)Nc1cccc(Oc2nc(Nc3ccc(N4CCN(C)CC4)cc3OC)ncc2Cl)c1 [WZ4002] (max dose 10000 nM)	0.413	0	0	0.228	0	1.35	0	1.75	0	1.98	0.278	0.75	1.16	0	0	0	9.21
Nc1nc(Nc2ccc3c(c2)CC[C@@H](N2CCCC2)CC3)nn1-c1cc2c(nn1)-c1ccccc1CCC2 [Bemcentinib] (max dose 10000 nM)	0	0	1.34	0	0	0	0	0	0	0	0	5.1e-07	0	0	0	0	0
O=C(O)CCc1ccc(NCc2cccc(Oc3ccccc3)c2)cc1 [GW9508] (max dose 10000 nM)	0	0	0	0	0	0	0	0	0	0	0	0	0	0	0	0	0
CC(=O)c1cnc2ccc(-c3cc(Cl)c(O)c(Cl)c3)nc2c1N[C@H]1CC[C@H](CN(C)C)CC1 [OTSSP167] (max dose 10000 nM)	58.6	52.1	58.7	24.7	53.8	0	68.1	65.6	19.9	57.6	66.4	58.9	43.5	52.8	3.04	46.7	70
CNC(=O)c1cc(Oc2ccc(NC(=O)Nc3cc(C(C)(C)C)nn3-c3ccc4ncccc4c3)c(F)c2)ccn1 [DCC-2036 (Rebastinib)] (max dose 10000 nM)	21.6	0	0	11.3	9.34	22.3	8.72	13.9	17.7	42.8	30.1	29.7	22.8	10.6	6.39	12.3	42.1
COc1ccccc1S(=O)(=O)Nc1ccc2c(c1)CN(C)C(=O)N2 (max dose 10000 nM)	1.4	0.475	0	0	0	0.733	0	2.12	0.84	1.9	0	0.402	2.91	0.265	0	0	0.591
CN(C)C(=O)[C@H](O)[C@H](Cc1ccccc1)NC(=O)c1cc2cc(Cl)ccc2[nH]1 (max dose 10000 nM)	0	0	6.93	0	0	0	0	0	0	0	0	0	0	0	0	0.183	0
CC(C)C(=O)Nc1ccc([N+](=O)[O-])c(C(F)(F)F)c1 [Flutamide] (max dose 10000 nM)	0	0	0	0	0	0.342	0.275	2.52	0	2.95	0	0.413	0	0	0	0	0

Limited to drug sensitivity score DSS3 (UM-UC-5) and drug sensitivity score DSS3 (UM-UC-3), for 2 of the compounds above:
SMILES	drug sensitivity score DSS3 (UM-UC-5)	drug sensitivity score DSS3 (UM-UC-3)
C=CC(=O)Nc1cccc(Oc2nc(Nc3ccc(N4CCN(C)CC4)cc3OC)ncc2Cl)c1 [WZ4002] (max dose 10000 nM)	0	0.75
Nc1nc(Nc2ccc3c(c2)CC[C@@H](N2CCCC2)CC3)nn1-c1cc2c(nn1)-c1ccccc1CCC2 [Bemcentinib] (max dose 10000 nM)	0	5.1e-07
